Paper doi:10.1101/2021.07.16.452612

Amino acid sequences for entries named in this document (tags omitted). A change or cut given only in a name is not applied to a line headed by its entry.
UniProt Q9HBL0: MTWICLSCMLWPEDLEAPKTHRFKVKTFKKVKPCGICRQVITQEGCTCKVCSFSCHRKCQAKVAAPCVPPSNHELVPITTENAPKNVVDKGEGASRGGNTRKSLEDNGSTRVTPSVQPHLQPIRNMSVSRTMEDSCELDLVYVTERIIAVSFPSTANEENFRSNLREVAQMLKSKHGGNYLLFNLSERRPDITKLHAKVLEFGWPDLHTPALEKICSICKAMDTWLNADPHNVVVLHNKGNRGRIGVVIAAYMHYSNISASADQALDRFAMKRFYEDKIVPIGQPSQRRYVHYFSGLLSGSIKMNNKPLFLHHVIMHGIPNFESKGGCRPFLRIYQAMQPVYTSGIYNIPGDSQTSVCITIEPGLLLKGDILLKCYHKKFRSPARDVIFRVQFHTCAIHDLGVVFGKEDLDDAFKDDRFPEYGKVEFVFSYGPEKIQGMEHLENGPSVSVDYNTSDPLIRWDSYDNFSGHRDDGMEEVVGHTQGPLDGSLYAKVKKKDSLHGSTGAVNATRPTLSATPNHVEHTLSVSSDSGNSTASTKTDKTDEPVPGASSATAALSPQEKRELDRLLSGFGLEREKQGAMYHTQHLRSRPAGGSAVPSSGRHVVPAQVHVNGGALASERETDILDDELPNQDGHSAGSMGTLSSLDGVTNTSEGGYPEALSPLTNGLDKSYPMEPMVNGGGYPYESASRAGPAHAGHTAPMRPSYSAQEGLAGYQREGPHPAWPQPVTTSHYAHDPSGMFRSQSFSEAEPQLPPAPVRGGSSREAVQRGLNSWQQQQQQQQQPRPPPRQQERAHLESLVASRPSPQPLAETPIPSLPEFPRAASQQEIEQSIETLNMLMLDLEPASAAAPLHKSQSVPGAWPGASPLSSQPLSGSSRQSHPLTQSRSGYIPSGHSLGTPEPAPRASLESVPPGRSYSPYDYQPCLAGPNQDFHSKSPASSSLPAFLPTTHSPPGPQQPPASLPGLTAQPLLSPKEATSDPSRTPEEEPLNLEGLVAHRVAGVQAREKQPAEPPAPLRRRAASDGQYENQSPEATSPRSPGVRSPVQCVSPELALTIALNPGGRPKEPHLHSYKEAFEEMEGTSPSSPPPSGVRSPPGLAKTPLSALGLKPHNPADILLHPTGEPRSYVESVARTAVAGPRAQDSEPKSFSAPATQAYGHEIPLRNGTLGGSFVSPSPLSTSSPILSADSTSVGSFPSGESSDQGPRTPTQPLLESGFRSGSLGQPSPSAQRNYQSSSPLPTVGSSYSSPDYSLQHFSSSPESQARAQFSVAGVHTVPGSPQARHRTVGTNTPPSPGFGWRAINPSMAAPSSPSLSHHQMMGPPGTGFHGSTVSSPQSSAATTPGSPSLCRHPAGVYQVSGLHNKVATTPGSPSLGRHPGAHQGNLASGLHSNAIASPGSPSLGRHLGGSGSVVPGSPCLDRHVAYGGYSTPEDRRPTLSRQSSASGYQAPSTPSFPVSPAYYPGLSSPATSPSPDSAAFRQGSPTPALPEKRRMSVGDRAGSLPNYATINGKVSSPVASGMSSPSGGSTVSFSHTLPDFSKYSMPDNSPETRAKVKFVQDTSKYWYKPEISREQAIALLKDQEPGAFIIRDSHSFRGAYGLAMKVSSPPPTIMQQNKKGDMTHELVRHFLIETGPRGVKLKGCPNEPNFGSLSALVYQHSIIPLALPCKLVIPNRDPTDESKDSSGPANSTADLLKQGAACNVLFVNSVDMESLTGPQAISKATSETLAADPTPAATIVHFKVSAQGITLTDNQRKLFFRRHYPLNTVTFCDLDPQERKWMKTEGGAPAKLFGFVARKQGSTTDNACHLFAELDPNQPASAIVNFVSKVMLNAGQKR
UniProt Q05397: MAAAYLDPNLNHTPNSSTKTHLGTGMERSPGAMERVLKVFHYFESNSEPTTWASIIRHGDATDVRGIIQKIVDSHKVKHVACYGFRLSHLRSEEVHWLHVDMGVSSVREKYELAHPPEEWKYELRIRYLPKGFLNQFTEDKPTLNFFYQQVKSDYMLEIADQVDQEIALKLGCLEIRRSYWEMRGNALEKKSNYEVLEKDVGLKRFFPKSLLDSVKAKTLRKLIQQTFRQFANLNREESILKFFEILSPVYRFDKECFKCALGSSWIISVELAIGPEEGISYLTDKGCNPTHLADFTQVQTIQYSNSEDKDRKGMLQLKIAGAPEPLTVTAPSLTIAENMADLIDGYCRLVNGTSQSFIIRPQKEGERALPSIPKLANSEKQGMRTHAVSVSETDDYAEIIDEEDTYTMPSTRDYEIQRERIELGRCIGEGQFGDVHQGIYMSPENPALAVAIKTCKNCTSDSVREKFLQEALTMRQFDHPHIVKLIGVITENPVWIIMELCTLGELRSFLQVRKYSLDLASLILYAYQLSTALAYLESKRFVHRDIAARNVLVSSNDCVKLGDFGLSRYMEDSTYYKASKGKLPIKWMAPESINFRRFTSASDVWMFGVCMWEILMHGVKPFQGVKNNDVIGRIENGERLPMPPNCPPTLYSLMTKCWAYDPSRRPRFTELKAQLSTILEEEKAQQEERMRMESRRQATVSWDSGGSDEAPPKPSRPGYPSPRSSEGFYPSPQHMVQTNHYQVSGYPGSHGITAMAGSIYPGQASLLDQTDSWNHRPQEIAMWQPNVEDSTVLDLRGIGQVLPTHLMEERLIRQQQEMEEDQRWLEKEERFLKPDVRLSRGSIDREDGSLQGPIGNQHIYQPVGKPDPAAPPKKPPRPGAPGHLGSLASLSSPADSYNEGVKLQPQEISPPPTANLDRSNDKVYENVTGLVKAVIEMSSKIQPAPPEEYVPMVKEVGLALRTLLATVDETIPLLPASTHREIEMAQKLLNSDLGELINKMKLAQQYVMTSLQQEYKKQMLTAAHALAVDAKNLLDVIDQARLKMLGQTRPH
UniProt Q13418: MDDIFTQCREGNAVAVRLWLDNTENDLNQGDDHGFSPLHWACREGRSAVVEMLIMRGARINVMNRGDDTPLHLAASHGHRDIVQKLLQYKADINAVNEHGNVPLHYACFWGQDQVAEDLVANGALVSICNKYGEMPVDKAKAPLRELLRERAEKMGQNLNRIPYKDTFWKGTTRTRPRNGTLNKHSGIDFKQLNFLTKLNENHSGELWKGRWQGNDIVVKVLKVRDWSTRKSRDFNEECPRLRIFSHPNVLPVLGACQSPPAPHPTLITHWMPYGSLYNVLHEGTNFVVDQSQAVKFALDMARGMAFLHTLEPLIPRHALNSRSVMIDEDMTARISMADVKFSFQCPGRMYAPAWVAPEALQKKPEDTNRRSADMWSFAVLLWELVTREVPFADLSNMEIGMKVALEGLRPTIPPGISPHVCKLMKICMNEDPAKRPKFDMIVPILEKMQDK
UniProt P26039: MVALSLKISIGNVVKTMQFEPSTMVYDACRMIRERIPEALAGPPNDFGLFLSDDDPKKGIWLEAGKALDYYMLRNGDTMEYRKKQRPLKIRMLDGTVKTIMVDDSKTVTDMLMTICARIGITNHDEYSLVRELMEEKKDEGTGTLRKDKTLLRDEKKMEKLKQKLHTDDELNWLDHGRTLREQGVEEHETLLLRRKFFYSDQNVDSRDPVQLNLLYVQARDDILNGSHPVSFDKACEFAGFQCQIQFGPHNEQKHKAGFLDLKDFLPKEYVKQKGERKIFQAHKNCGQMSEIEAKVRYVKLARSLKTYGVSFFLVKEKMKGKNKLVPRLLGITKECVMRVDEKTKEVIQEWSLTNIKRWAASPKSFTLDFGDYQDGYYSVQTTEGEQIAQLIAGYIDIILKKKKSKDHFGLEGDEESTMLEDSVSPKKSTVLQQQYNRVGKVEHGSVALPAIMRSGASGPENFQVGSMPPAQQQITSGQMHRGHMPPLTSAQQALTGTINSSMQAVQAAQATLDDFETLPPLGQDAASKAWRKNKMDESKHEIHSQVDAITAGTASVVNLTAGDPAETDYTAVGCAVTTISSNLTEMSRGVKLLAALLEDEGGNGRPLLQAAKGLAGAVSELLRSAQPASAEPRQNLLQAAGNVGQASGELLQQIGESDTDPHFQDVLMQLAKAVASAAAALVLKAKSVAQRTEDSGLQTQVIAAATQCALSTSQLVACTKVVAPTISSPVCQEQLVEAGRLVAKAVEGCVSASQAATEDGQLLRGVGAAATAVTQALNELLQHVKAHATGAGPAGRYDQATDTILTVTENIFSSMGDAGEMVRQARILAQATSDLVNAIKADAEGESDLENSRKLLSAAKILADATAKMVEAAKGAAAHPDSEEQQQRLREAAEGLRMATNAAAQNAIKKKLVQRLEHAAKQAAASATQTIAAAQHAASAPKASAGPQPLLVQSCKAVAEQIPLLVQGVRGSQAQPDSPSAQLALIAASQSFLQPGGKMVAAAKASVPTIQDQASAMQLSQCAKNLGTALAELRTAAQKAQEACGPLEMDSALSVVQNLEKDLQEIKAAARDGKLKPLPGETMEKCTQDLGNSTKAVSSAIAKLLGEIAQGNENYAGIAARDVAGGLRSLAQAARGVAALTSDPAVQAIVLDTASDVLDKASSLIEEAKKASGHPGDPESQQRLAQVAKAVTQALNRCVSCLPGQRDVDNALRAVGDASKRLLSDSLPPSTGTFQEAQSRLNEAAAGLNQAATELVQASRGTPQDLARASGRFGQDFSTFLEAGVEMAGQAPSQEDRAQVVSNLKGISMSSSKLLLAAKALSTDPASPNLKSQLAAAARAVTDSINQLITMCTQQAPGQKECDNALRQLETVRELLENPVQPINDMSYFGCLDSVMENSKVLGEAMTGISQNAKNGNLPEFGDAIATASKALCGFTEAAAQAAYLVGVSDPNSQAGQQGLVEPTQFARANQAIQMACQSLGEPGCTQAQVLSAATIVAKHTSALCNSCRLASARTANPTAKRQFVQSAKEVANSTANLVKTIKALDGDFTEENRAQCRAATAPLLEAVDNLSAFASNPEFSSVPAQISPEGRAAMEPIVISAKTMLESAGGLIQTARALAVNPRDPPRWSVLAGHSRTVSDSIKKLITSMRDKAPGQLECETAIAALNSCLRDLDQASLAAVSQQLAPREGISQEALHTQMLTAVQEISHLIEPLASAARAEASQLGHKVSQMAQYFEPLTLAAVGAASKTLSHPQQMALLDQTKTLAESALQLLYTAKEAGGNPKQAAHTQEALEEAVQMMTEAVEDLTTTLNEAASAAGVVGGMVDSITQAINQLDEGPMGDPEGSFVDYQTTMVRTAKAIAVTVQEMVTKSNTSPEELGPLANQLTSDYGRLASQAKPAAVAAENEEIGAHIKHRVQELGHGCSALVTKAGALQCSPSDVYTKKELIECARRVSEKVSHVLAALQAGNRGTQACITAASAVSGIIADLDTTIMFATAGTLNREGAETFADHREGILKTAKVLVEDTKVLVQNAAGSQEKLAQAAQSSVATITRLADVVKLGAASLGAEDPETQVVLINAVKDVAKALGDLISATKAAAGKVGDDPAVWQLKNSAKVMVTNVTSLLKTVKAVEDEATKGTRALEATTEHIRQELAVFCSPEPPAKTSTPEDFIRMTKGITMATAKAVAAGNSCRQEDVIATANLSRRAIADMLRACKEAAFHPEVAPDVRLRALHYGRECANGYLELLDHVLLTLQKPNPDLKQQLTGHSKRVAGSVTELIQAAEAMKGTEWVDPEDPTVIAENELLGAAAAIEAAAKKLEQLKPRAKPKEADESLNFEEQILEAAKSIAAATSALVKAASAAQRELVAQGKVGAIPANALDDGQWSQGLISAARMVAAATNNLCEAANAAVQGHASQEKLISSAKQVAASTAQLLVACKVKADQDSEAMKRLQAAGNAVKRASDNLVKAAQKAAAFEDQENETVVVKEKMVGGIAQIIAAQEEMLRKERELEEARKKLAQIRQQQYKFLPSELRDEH
UniProt Q8VI36: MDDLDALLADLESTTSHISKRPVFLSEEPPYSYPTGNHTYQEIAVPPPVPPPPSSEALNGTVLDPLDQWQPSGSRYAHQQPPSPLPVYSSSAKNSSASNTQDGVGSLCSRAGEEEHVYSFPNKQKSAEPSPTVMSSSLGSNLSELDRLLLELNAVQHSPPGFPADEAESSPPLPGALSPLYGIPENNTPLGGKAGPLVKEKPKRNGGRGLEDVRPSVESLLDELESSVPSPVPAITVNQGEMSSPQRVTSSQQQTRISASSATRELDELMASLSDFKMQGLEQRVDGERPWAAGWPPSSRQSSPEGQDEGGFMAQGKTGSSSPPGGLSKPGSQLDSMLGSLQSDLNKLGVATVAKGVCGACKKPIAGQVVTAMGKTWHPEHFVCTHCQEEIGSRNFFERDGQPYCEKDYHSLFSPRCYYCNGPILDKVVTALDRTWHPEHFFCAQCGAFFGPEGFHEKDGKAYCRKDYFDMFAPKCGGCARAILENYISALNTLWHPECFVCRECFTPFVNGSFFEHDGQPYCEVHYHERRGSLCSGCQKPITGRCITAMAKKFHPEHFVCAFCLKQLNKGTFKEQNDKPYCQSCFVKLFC

Columns and labels:
[1] = biological target: mCh-tensin1-cBAK (human) (UniProt Q9HBL0); assay: mitochondrial targeting and recruitment assay
[2] = biological target: mCh-tensin3-FL-cBAK (human) (UniProt Q68CZ2); assay: mitochondrial targeting and recruitment assay

binding [1] | binding [2] | Molecule
binds | – | GFP-FAK (from UniProt Q05397 1-1052)
binds | – | GFP-ILK (from UniProt Q13418 1-452)
binds | – | GFP-paxillin (from UniProt P49023 1-591)
binds | – | GFP-talin1 (from UniProt P26039 1-2541)
binds | – | GFP-talin2 (from UniProt Q9Y4G6 1-2542)
– | binds | GFP-talinΔR1-R10 (from UniProt P26039)
no binding | – | active β1 integrin (9EG7 staining), endogenous (from UniProt P09055 21-798) (receptor)
binds | – | endogenous paxillin (from UniProt Q8VI36 1-591)
binds | – | endogenous talin1 (from UniProt P26039 1-2541)
binds | – | endogenous vinculin (from UniProt Q64727 1-1066)
binds | – | GFP-KANK2 (protein, UniProt Q63ZY3 1-851) MAQVLHVPAPFPGTPGPASPPAFPAKDPDPPYSVETPYGYRLDLDFLKYVDDIEKGHTLRRVAVQRRPRLSSLPRGPGSWWTSTESLCSNASGDSRHSAYSYCGRGFYPQYGALETRGGFNPRVERTLLDARRRLEDQAATPTGLGSLTPSAAGSTASLVGVGLPPPTPRSSGLSTPVPPSAGHLAHVREQMAGALRKLRQLEEQVKLIPVLQVKLSVLQEEKRQLTVQLKSQKFLGHPTAGRGRSELCLDLPDPPEDPVALETRSVGTWVRERDLGMPDGEAALAAKVAVLETQLKKALQELQAAQARQADPQPQAWPPPDSPVRVDTVRVVEGPREVEVVASTAAGAPAQRAQSLEPYGTGLRALAMPGRPESPPVFRSQEVVETMCPVPAAATSNVHMVKKISITERSCDGAAGLPEVPAESSSSPPGSEVASLTQPEKSTGRVPTQEPTHREPTRQAASQESEEAGGTGGPPAGVRSIMKRKEEVADPTAHRRSLQFVGVNGGYESSSEDSSTAENISDNDSTENEAPEPRERVPSVAEAPQLRPAGTAAAKTSRQECQLSRESQHIPTAEGASGSNTEEEIRMELSPDLISACLALEKYLDNPNALTERELKVAYTTVLQEWLRLACRSDAHPELVRRHLVTFRAMSARLLDYVVNIADSNGNTALHYSVSHANFPVVQQLLDSGVCKVDKQNRAGYSPIMLTALATLKTQDDIETVLQLFRLGNINAKASQAGQTALMLAVSHGRVDVVKALLACEADVNVQDDDGSTALMCACEHGHKEIAGLLLAVPSCDISLTDRDGSTALMVALDAGQSEIASMLYSRMNIKCSFAPMSDDESPTSSSAEE

These are yes or no findings as the source states them, for the method shown. Binding calls can cover weak binding; strength is not graded here. For some assays here: Where a sequence is shown, tags or fusion partners need not be part of it.
